Assay results published in patent US20180134765A1.
These are yes or no findings as the source states them, for the method shown. Some binding calls cover weakened binding; strength is not graded here.

Chains of the proteins cited; added tags and fusions are not shown. Residues count along the entry.
UniProt P22607, residues 23-375: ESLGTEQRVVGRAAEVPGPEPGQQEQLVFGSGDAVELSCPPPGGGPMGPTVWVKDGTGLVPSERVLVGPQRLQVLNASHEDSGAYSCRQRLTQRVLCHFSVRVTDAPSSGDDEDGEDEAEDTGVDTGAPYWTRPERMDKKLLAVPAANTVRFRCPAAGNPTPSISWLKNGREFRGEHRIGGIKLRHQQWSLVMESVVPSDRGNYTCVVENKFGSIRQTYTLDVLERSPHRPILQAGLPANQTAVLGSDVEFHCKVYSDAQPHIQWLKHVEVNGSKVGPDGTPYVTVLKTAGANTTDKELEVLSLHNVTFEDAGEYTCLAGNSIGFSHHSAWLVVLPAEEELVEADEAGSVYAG

Assays:
[1] = target: FGFR3 (plate-coated) (UniProt P22607); assay: ELISA on FGFR3-coated wells after 1 h heat exposure
[2] = target: FGFR3 (plate-coated) (UniProt P22607); assay: ELISA on FGFR3-coated wells after 1 h at the stated temperature and 1 h at room temperature
[3] = target: FGFR3 (plate-coated) (UniProt P22607); assay: ELISA on FGFR3-coated wells, detection with NKG2D-Fc
[4] = target: FGFR3 (plate-coated) (UniProt P22607); assay: ELISA on FGFR3-coated wells, detection with NKG2D-Fc and anti-Fc-HRP
[5] = target: FGFR3 (plate-coated) (UniProt P22607); assay: ELISA: FGFR3 coated at 2 ug/ml, protein titrated, bound protein detected with NKG2D-Fc and anti-Fc-HRP

Measured: binding

B1: MICA-α3-iFv.2 (designed binder)
chain: EPHSLRYNLTVLSWDGSVQSGFLTEVHLDGQPFLRCDRQKCRAKPQGQWAEDVLGNKTWDRETRDLTGNGKDLRMTLAHIKDQKEGLHSLQEIRVCEIHEDNSTRSSQHFYYDGELFLSQNLETKEWTMPQSSRAQTLAMNVRNFLKEDAMKTKTHYHAMHADCLQELRRYLKSGVVLRRTVPPMVQVTRSEASGGSGDRVTITCRASQDVSTAVAWYQQKPGKAPKLLIYSASFLYSGVPSRFSGSGSGTDFTLTISSLQPEDFATYYCQQSYTTPPTFGQGTKVEIKGGSSRSSSSGGGGSGGGGEVQLVESGGGLVQPGGSLRLSCAASGFTFTSTGISWVRQAPGKGLEWVGRIYPTNGSTNYADSVKGRFTISADTSKNTAYLQMNSLRAEDTAVYYCARTYGIYDLYVDYTEYVMDYWGQGTLVTVSSGGSSRSSSSGGGGSGGGGDIQMTQSPSSLSASGGSGQITVTCRASGFYPWNITLSWRQDGVSLSHDTQQWGDVLPDGQGTYQTWVATRISQGEEQRFTCYMEHSGQHSTHPVPSGKGSHHHHHH
binds: all assays above
